Measured values published in the supplement of paper PMC10849652.
The list shows a part of the results.

Protein sequences, listed by entry. Tags and fused reporters are not part of them. Lines headed by an entry give the natural chain unless they say otherwise; changes in a name come on top.
UniProt P02654: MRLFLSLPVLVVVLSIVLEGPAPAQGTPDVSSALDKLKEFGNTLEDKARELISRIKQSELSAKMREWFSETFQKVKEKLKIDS
UniProt P84077: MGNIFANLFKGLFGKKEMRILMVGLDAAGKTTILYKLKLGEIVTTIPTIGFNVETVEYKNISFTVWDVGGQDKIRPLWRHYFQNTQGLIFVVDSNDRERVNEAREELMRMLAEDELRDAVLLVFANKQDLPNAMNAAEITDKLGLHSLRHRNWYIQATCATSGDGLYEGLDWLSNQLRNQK
UniProt P08133: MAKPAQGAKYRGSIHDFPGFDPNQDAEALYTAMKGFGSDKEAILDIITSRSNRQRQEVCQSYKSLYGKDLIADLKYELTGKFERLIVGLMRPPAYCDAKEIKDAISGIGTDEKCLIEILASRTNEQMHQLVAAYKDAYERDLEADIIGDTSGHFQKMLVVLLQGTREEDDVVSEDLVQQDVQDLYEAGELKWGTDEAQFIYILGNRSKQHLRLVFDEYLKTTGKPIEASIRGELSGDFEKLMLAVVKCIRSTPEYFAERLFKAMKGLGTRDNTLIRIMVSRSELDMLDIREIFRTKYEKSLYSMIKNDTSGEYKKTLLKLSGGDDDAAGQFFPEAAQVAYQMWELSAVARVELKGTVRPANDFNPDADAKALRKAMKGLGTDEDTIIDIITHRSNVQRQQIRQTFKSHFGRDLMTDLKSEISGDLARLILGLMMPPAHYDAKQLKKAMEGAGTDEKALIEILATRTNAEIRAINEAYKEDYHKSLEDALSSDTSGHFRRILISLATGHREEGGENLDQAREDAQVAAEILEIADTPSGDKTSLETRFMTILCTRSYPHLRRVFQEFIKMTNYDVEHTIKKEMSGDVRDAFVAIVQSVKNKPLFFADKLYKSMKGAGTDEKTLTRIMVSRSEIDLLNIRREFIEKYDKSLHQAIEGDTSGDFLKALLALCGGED
UniProt Q9UJX3, whole entry, looked up: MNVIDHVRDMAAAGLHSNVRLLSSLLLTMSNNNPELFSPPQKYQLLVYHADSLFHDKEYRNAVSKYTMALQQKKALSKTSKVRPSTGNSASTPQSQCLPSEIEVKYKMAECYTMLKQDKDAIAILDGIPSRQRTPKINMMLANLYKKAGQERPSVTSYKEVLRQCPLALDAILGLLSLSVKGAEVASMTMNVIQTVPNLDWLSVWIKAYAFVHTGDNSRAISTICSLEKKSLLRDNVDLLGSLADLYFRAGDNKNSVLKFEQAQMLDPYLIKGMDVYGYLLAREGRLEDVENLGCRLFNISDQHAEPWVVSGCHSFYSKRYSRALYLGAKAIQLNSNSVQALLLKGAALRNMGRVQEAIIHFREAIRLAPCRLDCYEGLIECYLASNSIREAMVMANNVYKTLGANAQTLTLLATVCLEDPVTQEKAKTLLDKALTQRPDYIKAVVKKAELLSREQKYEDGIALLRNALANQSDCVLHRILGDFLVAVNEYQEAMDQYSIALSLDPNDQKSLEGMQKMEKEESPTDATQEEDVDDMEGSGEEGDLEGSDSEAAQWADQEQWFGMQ
UniProt P39687: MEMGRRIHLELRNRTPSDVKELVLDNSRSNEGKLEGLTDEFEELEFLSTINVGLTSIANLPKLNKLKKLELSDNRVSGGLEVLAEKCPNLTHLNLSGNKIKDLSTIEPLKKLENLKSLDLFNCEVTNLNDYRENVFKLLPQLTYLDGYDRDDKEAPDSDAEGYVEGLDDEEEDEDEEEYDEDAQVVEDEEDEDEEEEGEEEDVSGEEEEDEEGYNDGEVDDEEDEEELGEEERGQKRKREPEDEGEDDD
UniProt Q8N6T3: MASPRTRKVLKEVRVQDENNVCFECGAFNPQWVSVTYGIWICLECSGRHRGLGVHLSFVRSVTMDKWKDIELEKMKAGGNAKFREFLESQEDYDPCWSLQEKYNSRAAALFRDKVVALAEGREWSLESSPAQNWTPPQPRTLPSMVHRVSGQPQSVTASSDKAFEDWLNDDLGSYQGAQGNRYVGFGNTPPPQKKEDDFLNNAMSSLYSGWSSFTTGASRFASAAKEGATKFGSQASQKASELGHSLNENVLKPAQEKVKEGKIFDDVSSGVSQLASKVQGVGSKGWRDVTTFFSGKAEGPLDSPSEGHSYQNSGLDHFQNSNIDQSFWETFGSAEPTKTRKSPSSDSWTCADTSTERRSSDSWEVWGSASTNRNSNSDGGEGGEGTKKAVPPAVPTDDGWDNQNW
UniProt Q7Z2E3: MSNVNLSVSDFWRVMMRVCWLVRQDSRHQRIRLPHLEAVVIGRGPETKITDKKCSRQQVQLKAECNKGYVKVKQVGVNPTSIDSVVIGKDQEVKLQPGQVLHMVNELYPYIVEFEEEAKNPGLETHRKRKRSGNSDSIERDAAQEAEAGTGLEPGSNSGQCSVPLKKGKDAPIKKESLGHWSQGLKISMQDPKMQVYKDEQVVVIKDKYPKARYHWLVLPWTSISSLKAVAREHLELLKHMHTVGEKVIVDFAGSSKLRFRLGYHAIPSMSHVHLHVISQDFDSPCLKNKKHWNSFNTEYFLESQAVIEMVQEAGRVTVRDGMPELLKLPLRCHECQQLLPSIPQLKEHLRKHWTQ
UniProt Q13795: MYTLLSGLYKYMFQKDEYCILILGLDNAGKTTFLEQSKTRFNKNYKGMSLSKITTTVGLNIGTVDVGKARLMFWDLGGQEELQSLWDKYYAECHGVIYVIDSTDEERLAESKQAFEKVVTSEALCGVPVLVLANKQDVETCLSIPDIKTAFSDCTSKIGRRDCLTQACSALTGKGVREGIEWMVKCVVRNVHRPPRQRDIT
UniProt Q9Y6D6: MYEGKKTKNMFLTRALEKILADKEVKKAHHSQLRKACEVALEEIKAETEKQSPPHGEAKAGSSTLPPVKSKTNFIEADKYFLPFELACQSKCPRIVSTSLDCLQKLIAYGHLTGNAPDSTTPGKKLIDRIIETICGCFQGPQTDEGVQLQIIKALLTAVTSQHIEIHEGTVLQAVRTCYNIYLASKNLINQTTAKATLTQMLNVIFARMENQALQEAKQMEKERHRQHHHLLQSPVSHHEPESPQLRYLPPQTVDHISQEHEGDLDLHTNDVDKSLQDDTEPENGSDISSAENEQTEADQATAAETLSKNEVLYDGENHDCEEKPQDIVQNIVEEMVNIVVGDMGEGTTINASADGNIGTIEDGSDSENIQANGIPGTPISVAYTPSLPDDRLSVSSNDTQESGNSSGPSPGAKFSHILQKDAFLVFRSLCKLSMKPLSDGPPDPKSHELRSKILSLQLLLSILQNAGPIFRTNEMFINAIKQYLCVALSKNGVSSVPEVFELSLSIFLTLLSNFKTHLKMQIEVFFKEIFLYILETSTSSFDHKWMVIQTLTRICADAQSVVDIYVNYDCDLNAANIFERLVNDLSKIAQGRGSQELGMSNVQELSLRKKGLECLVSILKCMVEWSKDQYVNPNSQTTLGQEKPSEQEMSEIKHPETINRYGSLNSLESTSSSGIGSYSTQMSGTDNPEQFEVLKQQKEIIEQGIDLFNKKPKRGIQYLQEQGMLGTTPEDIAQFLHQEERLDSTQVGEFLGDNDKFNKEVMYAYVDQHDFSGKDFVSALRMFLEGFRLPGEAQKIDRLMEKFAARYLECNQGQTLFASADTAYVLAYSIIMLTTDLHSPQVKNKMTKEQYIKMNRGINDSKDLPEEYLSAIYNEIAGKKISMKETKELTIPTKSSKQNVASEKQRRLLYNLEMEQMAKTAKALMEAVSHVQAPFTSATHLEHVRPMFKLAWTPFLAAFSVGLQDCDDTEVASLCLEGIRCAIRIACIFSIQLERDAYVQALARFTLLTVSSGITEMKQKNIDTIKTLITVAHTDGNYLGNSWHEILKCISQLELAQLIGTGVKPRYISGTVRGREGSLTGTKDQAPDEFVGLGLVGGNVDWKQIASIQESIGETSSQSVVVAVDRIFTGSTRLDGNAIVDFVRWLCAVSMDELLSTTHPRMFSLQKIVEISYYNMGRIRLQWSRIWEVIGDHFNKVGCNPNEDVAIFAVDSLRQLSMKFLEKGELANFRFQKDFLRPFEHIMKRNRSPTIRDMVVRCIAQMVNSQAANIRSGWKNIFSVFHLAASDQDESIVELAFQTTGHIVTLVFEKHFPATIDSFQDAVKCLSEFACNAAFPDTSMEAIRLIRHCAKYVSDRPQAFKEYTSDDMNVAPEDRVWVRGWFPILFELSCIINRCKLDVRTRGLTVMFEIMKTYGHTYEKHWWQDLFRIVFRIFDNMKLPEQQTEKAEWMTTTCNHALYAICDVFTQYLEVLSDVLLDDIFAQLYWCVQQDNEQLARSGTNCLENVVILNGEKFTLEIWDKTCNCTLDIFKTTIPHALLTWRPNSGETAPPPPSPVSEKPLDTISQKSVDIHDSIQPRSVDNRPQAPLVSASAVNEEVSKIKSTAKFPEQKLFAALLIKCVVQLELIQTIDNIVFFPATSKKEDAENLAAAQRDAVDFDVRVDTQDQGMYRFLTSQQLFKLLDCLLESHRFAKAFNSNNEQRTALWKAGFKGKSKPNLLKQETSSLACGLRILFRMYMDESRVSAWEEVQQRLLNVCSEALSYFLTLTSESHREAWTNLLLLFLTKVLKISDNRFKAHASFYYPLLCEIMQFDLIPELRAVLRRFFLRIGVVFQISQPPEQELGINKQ
UniProt P02749: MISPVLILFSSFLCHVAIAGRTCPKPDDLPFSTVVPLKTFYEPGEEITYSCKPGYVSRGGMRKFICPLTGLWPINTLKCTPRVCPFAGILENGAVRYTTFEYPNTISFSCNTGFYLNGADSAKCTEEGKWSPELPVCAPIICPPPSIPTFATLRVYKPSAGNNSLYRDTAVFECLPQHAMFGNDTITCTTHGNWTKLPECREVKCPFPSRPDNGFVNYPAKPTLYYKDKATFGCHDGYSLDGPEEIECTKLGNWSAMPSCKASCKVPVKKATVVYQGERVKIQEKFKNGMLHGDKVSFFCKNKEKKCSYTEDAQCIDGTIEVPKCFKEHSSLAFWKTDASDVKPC
UniProt Q9NZN5: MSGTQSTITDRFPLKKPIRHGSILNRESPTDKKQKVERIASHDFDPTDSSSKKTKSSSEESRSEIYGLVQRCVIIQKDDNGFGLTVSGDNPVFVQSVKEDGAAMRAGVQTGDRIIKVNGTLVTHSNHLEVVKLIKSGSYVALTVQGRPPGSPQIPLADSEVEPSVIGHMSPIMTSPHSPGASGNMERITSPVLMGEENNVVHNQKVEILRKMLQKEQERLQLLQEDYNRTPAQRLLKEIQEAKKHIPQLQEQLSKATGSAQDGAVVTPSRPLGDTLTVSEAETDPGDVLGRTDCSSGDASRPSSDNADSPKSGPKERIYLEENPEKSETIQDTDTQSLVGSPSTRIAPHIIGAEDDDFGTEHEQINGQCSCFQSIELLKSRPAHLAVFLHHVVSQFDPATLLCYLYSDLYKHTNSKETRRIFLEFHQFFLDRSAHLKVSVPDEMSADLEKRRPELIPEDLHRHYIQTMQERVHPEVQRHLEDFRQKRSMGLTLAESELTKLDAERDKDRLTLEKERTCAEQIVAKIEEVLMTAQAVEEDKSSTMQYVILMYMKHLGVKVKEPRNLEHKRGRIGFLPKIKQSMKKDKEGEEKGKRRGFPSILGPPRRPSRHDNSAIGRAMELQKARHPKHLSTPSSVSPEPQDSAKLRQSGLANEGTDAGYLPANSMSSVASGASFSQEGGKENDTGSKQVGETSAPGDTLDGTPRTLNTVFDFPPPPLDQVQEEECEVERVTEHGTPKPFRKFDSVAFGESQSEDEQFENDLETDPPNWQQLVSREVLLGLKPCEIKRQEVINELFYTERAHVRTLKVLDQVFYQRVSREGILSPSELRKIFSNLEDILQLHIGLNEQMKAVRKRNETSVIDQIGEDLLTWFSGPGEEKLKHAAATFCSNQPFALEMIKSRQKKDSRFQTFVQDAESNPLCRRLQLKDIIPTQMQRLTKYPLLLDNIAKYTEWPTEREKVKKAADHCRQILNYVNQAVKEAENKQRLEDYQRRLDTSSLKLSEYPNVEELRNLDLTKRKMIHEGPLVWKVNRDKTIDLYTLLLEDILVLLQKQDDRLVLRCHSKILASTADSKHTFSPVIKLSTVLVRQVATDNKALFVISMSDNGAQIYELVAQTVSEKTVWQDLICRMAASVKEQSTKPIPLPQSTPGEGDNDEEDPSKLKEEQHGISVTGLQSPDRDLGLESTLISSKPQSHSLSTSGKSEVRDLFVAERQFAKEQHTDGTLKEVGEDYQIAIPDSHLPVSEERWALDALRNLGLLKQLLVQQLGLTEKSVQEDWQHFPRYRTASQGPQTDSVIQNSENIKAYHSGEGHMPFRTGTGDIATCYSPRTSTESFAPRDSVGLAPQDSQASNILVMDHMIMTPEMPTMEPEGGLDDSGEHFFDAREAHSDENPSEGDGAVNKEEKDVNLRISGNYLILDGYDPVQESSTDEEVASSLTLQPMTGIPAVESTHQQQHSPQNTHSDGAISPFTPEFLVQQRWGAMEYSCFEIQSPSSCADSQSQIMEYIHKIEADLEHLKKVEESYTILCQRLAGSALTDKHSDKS

Tests used:
Test in all cases: log2 fold change, soluble protein after heating vs DMSO (PISA); higher = thermal stabilisation; K562 cells, 10 uM, 30 min; active = over 0.2 and 3.5 SD of the protein, either way, in both replicates (recomputed)
[1] = compound: CN1CCN(CCOc2cc(OC3CCOCC3)c3c(Nc4c(Cl)ccc5c4OCO5)ncnc3c2)CC1 [saracatinib]
Method in brief: (§1)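 Values are thermal stability changes relative to control samples and are taken from duplicates. They are stated as log2 fold changes. Before quantification by TMTpro 16plex LC-MS/MS with equalised channel sums, K562 cells at 2×10^6 cells/mL were treated with 10 μM compound for 30 min, heated in aliquots for 3 min across 48°C-58°C, pooled, extracted in PBS with 0.5% NP-40 at 4°C, and centrifuged at 21,000xg for 90 min to give the soluble supernatant.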

[2] = compound: CN1CCN(c2nc(C3=C(c4c[nH]c5ccccc45)C(=O)NC3=O)c3ccccc3n2)CC1 [sotrastaurin]
Method in brief: as §1

[3] = compound: CN1CC[C@H](c2c(O)cc(O)c3c(=O)cc(-c4ccccc4Cl)oc23)[C@H](O)C1 [alvocidib]
Method in brief: as §1

[4] = compound: CN1CCc2c(c3ccccc3n2Cc2ccc(C(=O)NO)cc2)C1 [Tubastatin A]
Method in brief: as §1

[5] = compound: CNC(=O)C1=CC=CC=C1NC2=NC(=NC=C2Cl)NC3=C(C=C(C=C3)N4CCOCC4)OC
Method in brief: as §1

[6] = compound: CNC(=O)c1ccc(Nc2ncc(C(F)(F)F)c(NCc3nccnc3N(C)S(C)(=O)=O)n2)cc1 [defactinib]
Method in brief: as §1

[7] = compound: CNCc1ccc(-c2[nH]c3cc(F)cc4c3c2CCNC4=O)cc1 [rucaparib]
Method in brief: as §1

[8] = compound: CNc1nc(-c2ccc3c(N)n[nH]c3c2)cc(N2C[C@@H](C(=O)NC3CCCCC3)CC[C@H]2C)n1
Method in brief: as §1

[9] = compound: COC(=O)N[C@@H](C)CNc1nccc(-c2cn(C(C)C)nc2-c2cc(Cl)cc(NS(C)(=O)=O)c2F)n1 [encorafenib]
Method in brief: as §1

[10] = compound: COC(=O)[C@H](CCSC)NC(=O)C1=C(C=C(C=C1)NC[C@H](CS)N)C2=CC=CC=C2
Method in brief: as §1

Measured: log2 fold change

APOL2 (UniProt J3KQL8)
inactive: [1] -0.061 | [2] 0 | [3] 0.047 | [4] 0.044 | [5] -0.04 | [6] -0.071 | [7] -0.068 | [8] -0.111 | [9] 0 | [10] -0.052

ARHGEF18 (UniProt Q6ZSZ5)
inactive: [1] -0.106 | [2] -0.016 | [3] 0.121 | [4] 0.124 | [5] -0.165 | [6] 0.044 | [8] -0.002 | [10] -0.143

APOC1 (UniProt P02654)
inactive: [1] -0.124 | [2] 0.006 | [3] 0.08 | [4] -0.036 | [5] 0.035 | [6] -0.004 | [7] -0.047 | [8] -0.072 | [9] -0.045 | [10] 0.07

ARF1 (UniProt P84077)
inactive: [1] 0.066 | [2] -0.168 | [3] -0.141 | [4] -0.123 | [5] -0.032 | [6] 0.002 | [7] 0.038 | [8] 0.033 | [9] 0.171 | [10] 0.008

ARFGEF2 (UniProt Q9Y6D5)
inactive: [1] 0.026 | [2] 0.044 | [3] -0.061 | [4] 0.041 | [5] 0.053 | [6] -0.034 | [7] -0.021 | [8] 0.02 | [9] 0.058 | [10] -0.046

ANO10 (UniProt Q9NW15)
inactive: [1] 0.022 | [2] -0.004 | [3] -0.089 | [4] 0.036 | [5] 0.047 | [6] -0.029 | [7] -0.042 | [8] -0.051 | [9] -0.01 | [10] 0

AP3S1 (UniProt Q92572)
inactive: [1] -0.012 | [2] -0.022 | [3] -0.024 | [4] 0.056 | [5] -0.027 | [6] 0.002 | [7] -0.011 | [8] 0.045 | [9] 0.055 | [10] -0.039

ANXA6 (UniProt P08133)
inactive: [1] -0.026 | [2] 0.05 | [3] -0.093 | [4] 0.022 | [5] 0.028 | [6] -0.089 | [7] -0.037 | [8] -0.049 | [9] 0.03 | [10] -0.028

API5 isoform 2 (UniProt Q9BZZ5)
inactive: [1] 0.038 | [2] 0.015 | [3] -0.112 | [4] -0.027 | [5] 0.046 | [6] 0 | [7] 0.002 | [8] 0.007 | [9] -0.021 | [10] 0.098

ANAPC7 (UniProt Q9UJX3)
inactive: [1] -0.012 | [2] -0.055 | [3] -0.094 | [4] 0.045 | [5] -0.009 | [6] -0.051 | [7] 0.079 | [8] 0.007 | [9] 0.028 | [10] -0.02

AP1AR (UniProt Q63HQ0)
inactive: [1] 0.003 | [2] 0.139 | [3] 0.03 | [4] -0.024 | [5] 0.127 | [6] -0.072 | [7] 0.007 | [8] -0.041 | [9] -0.086 | [10] -0.002

ANK1 isoform 14 (UniProt P16157)
inactive: [1] -0.056 | [2] -0.17 | [3] 0.073 | [4] 0.141 | [5] 0.024 | [6] 0.121 | [7] 0.621 | [8] 0.075 | [9] 0.271 | [10] -0.08

ANP32A (UniProt P39687)
inactive: [1] 0.004 | [2] 0.003 | [3] -0.084 | [4] 0.005 | [5] -0.018 | [6] -0.071 | [7] -0.203 | [8] -0.015 | [9] 0.099 | [10] -0.003

APOO (UniProt Q9BUR5)
inactive: [1] 0.059 | [2] 0.048 | [3] -0.045 | [4] 0.086 | [5] -0.034 | [6] -0.004 | [7] -0.061 | [8] -0.093 | [9] -0.008 | [10] 0.076

AP3D1 isoform 5 (UniProt O14617)
inactive: [1] -0.087 | [2] -0.026 | [3] -0.018 | [4] 0.008 | [5] -0.011 | [6] -0.021 | [7] 0.065 | [8] 0.016 | [9] 0.064 | [10] -0.035

ANAPC16 (UniProt Q96DE5)
inactive: [1] 0.011 | [2] -0.028 | [3] -0.07 | [4] 0 | [5] 0.035 | [6] 0.021 | [7] -0.011 | [8] 0.034 | [9] 0.021 | [10] 0.038

AP1S1 (UniProt P61966)
inactive: [1] -0.023 | [2] -0.079 | [3] 0.007 | [4] -0.111 | [5] 0.071 | [6] -0.055 | [7] -0.046 | [8] 0.024 | [9] 0.06 | [10] -0.015

ANKHD1 isoform 6 (UniProt Q8IWZ3)
inactive: [1] -0.023 | [2] -0.157 | [3] 0.035 | [4] 0.055 | [5] -0.018 | [6] 0.013 | [7] 0.218 | [8] 0.082 | [9] 0.102 | [10] 0.006

ANXA1 (UniProt P04083)
inactive: [1] -0.032 | [2] -0.112 | [3] -0.103 | [4] 0.029 | [5] 0.067 | [6] -0.084 | [7] -0.029 | [8] 0.031 | [9] 0.071 | [10] -0.01

ARFGAP1 (UniProt Q8N6T3)
inactive: [1] -0.021 | [2] -0.086 | [4] 0.034 | [5] 0.068 | [6] -0.158 | [7] -0.048 | [8] -0.087 | [9] 0.068 | [10] -0.044

Quoted from the listing (8 entries):
ANP32A (UniProt P39687)
inactive: [1] 0.004 | [2] 0.003 | [3] -0.084 | [4] 0.005 | [5] -0.018 | [6] -0.071 | [7] -0.203 | [8] -0.015 | [9] 0.099 | [10] -0.003

APOO (UniProt Q9BUR5)
inactive: [1] 0.059 | [2] 0.048 | [3] -0.045 | [4] 0.086 | [5] -0.034 | [6] -0.004 | [7] -0.061 | [8] -0.093 | [9] -0.008 | [10] 0.076

AP3D1 isoform 5 (UniProt O14617)
inactive: [1] -0.087 | [2] -0.026 | [3] -0.018 | [4] 0.008 | [5] -0.011 | [6] -0.021 | [7] 0.065 | [8] 0.016 | [9] 0.064 | [10] -0.035

ANAPC16 (UniProt Q96DE5)
inactive: [1] 0.011 | [2] -0.028 | [3] -0.07 | [4] 0 | [5] 0.035 | [6] 0.021 | [7] -0.011 | [8] 0.034 | [9] 0.021 | [10] 0.038

AP1S1 (UniProt P61966)
inactive: [1] -0.023 | [2] -0.079 | [3] 0.007 | [4] -0.111 | [5] 0.071 | [6] -0.055 | [7] -0.046 | [8] 0.024 | [9] 0.06 | [10] -0.015

ANKHD1 isoform 6 (UniProt Q8IWZ3)
inactive: [1] -0.023 | [2] -0.157 | [3] 0.035 | [4] 0.055 | [5] -0.018 | [6] 0.013 | [7] 0.218 | [8] 0.082 | [9] 0.102 | [10] 0.006

ANXA1 (UniProt P04083)
inactive: [1] -0.032 | [2] -0.112 | [3] -0.103 | [4] 0.029 | [5] 0.067 | [6] -0.084 | [7] -0.029 | [8] 0.031 | [9] 0.071 | [10] -0.01

ARFGAP1 (UniProt Q8N6T3)
inactive: [1] -0.021 | [2] -0.086 | [4] 0.034 | [5] 0.068 | [6] -0.158 | [7] -0.048 | [8] -0.087 | [9] 0.068 | [10] -0.044

(continued)

APTX (UniProt Q7Z2E3)
inactive: [1] -0.022 | [2] -0.06 | [3] 0.048 | [5] -0.138 | [8] -0.042

ARFRP1 (UniProt Q13795)
inactive: [1] 0.108 | [2] -0.035 | [4] -0.059 | [5] 0.037 | [6] 0.01 | [7] 0.033 | [8] 0.031 | [9] -0.027 | [10] -0.137

ARFGEF1 (UniProt Q9Y6D6)
inactive: [1] 0.037 | [2] 0.039 | [4] 0.013 | [5] 0.094 | [6] 0.007 | [7] 0.011 | [8] 0.059 | [9] 0.048 | [10] -0.038

ANPEP (UniProt P15144)
inactive: [1] 0.011 | [2] 0.023 | [3] -0.082 | [4] -0.145 | [5] 0.1 | [8] -0.004

APOH (UniProt P02749)
inactive: [1] 0.097 | [2] 0.317 | [4] -0.128 | [5] -0.032 | [6] -0.042 | [7] -0.13 | [8] -0.391 | [9] 0.041 | [10] -0.021

ARHGAP21 (UniProt Q5T5U3)
inactive: [1] -0.099 | [2] 0.117 | [3] -0.001 | [8] 0.06

ARHGEF12 (UniProt Q9NZN5)
inactive: [1] 0.128 | [2] -0.291 | [4] -0.111 | [5] -0.022 | [6] 0.11 | [8] 0.024 | [10] -0.227

ANXA5 (UniProt P08758)
inactive: [1] -0.023 | [2] -0.038 | [4] -0.006 | [5] 0.039 | [6] -0.082 | [7] -0.001 | [8] 0.012 | [9] 0.083 | [10] -0.062
